Values from PubChem BioAssay AID1224826 (NIAID, 2016)
Shown is a random part of about 17,000 deposited reagents. Of all reagents, about 1,110 (6.6%) are marked active. 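Active means lowered or raised reporter signal; replicate intensities are raw and not normalised per plate.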 A reagent listed more than once was tested more than once; the source does not tell the runs apart.

- Screen: 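Genes that change LPS-induced Tnf promoter activity in mouse macrophages when knocked down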 (primary screen)
- Cell system: RAW264.7 G9 macrophages from mouse bearing reporters for p65 (GFP) and the Tnf promoter (mCherry)
- Reagent: siRNA pool against mouse genes, 100 nM
- Timing: 16 h of LPS stimulation, after 2 days of siRNA transfection
- Challenge: bacterial lipopolysaccharide (Salmonella minnesota R595), 10 ng/ml
- Read-out: 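Imaged Tnf reporter mCherry in nuclei, minus background, normalised per plate to the median and expressed as robust z-scores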
- Reading the numbers: Tnf reporter robust z-score: higher = stronger Tnf promoter reporter signal after LPS; Tnf reporter intensity: higher = stronger Tnf promoter reporter signal
- Call rule: 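a well counts as active at a score of -1.3 or below (Tlr4 knock-down control median) or above 3 (raised signal); controls and wells holding fewer than 50 cells are excluded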
- Meaning of the calls: active = Tnf reporter clearly lowered or raised; inactive = no clear change in Tnf reporter

target gene	PubChem SID	Tnf reporter robust z-score	fewer than 50 cells in well	Tnf reporter intensity, replicate 1	Tnf reporter intensity, replicate 2	activity call
Strada (STE20-related kinase adaptor alpha)	SID315474475	0.71	enough cells in well	243	196	inactive
Strada (STE20-related kinase adaptor alpha)	SID315474475	-0.14	enough cells in well	237	64	inactive
Sln (sarcolipin)	SID315472418		fewer than 50 cells per well; well left out of calls	94.1	49.6	inactive
Or52a33 (olfactory receptor family 52 subfamily A member 33)	SID315480684	2.18	enough cells in well	162	207	inactive
Pik3cd	SID315468511	-0.05	enough cells in well	252	180	inactive
Tex19.1 (testis expressed gene 19.1)	SID315474760		fewer than 50 cells per well; well left out of calls	55.4	68.7	inactive
Aamp (angio-associated migratory protein)	SID315478552	1.02	enough cells in well	150	281	inactive
Galc (galactosylceramidase)	SID315466815	0.37	enough cells in well	300	254	inactive
Has1 (hyaluronan synthase 1)	SID315467145	0.66	enough cells in well	329	181	inactive
Hnrnpa2b1 (heterogeneous nuclear ribonucleoprotein A2/B1)	SID315471058	-0.27	enough cells in well	247	133	inactive
Runx2 (runt related transcription factor 2)	SID315465787	-2	enough cells in well	48	35.3	active
Nt5c2 (5'-nucleotidase, cytosolic II)	SID315475419	0.47	enough cells in well	225	168	inactive
Nsf (N-ethylmaleimide sensitive fusion protein)	SID315468252	-0.24	enough cells in well	178	134	inactive
Mettl8 (methyltransferase 8, methylcytidine)	SID315478617	1.95	enough cells in well	335	352	inactive
Ccdc158 (coiled-coil domain containing 158)	SID315481370	-0.72	enough cells in well	163	48.1	inactive
Nr2e3 (nuclear receptor subfamily 2, group E, member 3)	SID315470253	-0.22	enough cells in well	166	214	inactive
Klhdc10 (kelch domain containing 10)	SID315475377	0.29	enough cells in well	171	176	inactive
Foxk1 (forkhead box K1)	SID315467955	0.77	enough cells in well	302	178	inactive
Mnt (max binding protein)	SID315467957	0.42	enough cells in well	253	274	inactive
Naa25 (N(alpha)-acetyltransferase 25, NatB auxiliary subunit)	SID315478919	-0.68	enough cells in well	56.9	124	inactive
Idi1 (isopentenyl-diphosphate delta isomerase)	SID315481112	0.54	enough cells in well	278	224	inactive
Tmed6 (transmembrane p24 trafficking protein 6)	SID315472330		fewer than 50 cells per well; well left out of calls	176	46.8	inactive
A130023I24Rik (RIKEN cDNA A130023I24 gene)	SID315481342	-0.52	enough cells in well	135	134	inactive
Paqr4 (progestin and adipoQ receptor family member IV)	SID315475328	-1.48	enough cells in well	126	40.3	active
Ffar4 (free fatty acid receptor 4)	SID315476585	-0.87	enough cells in well	168	133	inactive
Hprt1 (hypoxanthine phosphoribosyltransferase 1)	SID315467290	1.02	enough cells in well	326	247	inactive
Ccr10 (C-C motif chemokine receptor 10)	SID315466021	0.1	enough cells in well	217	314	inactive
Zfp11 (zinc finger protein 11)	SID315470092	1.25	enough cells in well	186	167	inactive
Treml4 (triggering receptor expressed on myeloid cells-like 4)	SID315478382		fewer than 50 cells per well; well left out of calls	174	130	inactive
Calr3 (calreticulin 3)	SID315474707	0.7	enough cells in well	209	210	inactive
Sqle (squalene epoxidase)	SID315469456	-0.33	enough cells in well	262	178	inactive
Adcy4 (adenylate cyclase 4)	SID315476416	-0.11	enough cells in well	175	203	inactive
Ids (iduronate 2-sulfatase)	SID315467373	0.09	enough cells in well	227	211	inactive
Il33 (interleukin 33)	SID315475452	2.46	enough cells in well	343	331	inactive
Kcnh8	SID315477683	1.15	enough cells in well	329	210	inactive
Hmg20a (high mobility group 20A)	SID315472682	0.21	enough cells in well	212	239	inactive
Cald1 (caldesmon 1)	SID315476831	1.87	enough cells in well	261	297	inactive
Atf2 (activating transcription factor 2)	SID315465534	1.3	enough cells in well	195	252	inactive
Rtp3 (receptor transporter protein 3)	SID315479284		fewer than 50 cells per well; well left out of calls	74.1	59.2	inactive
Fam78b (family with sequence similarity 78, member B)	SID315478516	0.65	enough cells in well	185	201	inactive
Ndrg4 (N-myc downstream regulated gene 4)	SID315479173	-1.12	enough cells in well	176	118	inactive
Or5h22 (olfactory receptor family 5 subfamily H member 22)	SID315480077	-0.38	enough cells in well	154	107	inactive
Ly75 (lymphocyte antigen 75)	SID315467785		fewer than 50 cells per well; well left out of calls	129	143	inactive
Nrp2 (neuropilin 2)	SID315468245	-0.78	enough cells in well	154	153	inactive
Gstp1 (glutathione S-transferase, pi 1)	SID315467065	-0.89	enough cells in well	199	147	inactive
Or10j27 (olfactory receptor family 10 subfamily J member 27)	SID315480408	-0.44	enough cells in well	156	101	inactive
Prr13 (proline rich 13)	SID315472247	2.73	enough cells in well	407	175	inactive
Jup (junction plakoglobin)	SID315467556	0.58	enough cells in well	294	174	inactive
Gzmk (granzyme K)	SID315467096	0.9	enough cells in well	361	186	inactive
Aldh3a1 (aldehyde dehydrogenase family 3, subfamily A1)	SID315465385	-0.08	enough cells in well	138	194	inactive
Unc5c (unc-5 netrin receptor C)	SID315469938	-0.7	enough cells in well	195	151	inactive
St7 (suppression of tumorigenicity 7)	SID315472077		fewer than 50 cells per well; well left out of calls	56.5	62.7	inactive
A530013C23Rik (RIKEN cDNA A530013C23 gene)	SID315481537	-0.06	enough cells in well	125	197	inactive
H2-Ea (histocompatibility 2, class II antigen E alpha)	SID315467106	0.34	enough cells in well	266	210	inactive
Golga1 (golgin A1)	SID315475407	0.18	enough cells in well	261	174	inactive
Egr1 (early growth response 1)	SID315466461	-0.59	enough cells in well	183	185	inactive
Or1n1 (olfactory receptor family 1 subfamily N member 1)	SID315480564	-0.7	enough cells in well	144	88.4	inactive
Cntn4 (contactin 4)	SID315480886	-0.4	enough cells in well	145	149	inactive
